# Assay results taken from patent US5352680A, “Delta opioid receptor antagonists to block opioid agonist tolerance and dependence” (priority 1992, dated 1994).
# Test system: development of physical dependence in mice treated acutely with morphine
# Type: in vivo, mice (male Swiss-Webster)
# Conditions: Morphine sulfate 100 mg/kg, s.c. 4 hr before the naloxone; * significantly different from MS + NTI (single injection)
compound,measurement,value
"CN1CC[C@]23c4c5ccc(O)c4O[C@H]2[C@@H](O)C=C[C@H]3[C@H]1C5.O=S(=O)(O)O [Morphine sulfate, reference compound]",ED50 of Naloxone,2.0 ± 0.3 μmol/kg ± S.E.
